Reference: publication PMC9475456, “DDX56 transcriptionally activates MIST1 to facilitate tumorigenesis of HCC through PTEN-AKT signaling”
Results are given in words; binding and its absence hold for the method and conditions named. In cells and extracts the contact can be indirect. Some entries that bind do so weakly or less than the wild type.

Sequences of proteins named here, by UniProt entry; tags and fusion partners are left off.
UniProt Q03112: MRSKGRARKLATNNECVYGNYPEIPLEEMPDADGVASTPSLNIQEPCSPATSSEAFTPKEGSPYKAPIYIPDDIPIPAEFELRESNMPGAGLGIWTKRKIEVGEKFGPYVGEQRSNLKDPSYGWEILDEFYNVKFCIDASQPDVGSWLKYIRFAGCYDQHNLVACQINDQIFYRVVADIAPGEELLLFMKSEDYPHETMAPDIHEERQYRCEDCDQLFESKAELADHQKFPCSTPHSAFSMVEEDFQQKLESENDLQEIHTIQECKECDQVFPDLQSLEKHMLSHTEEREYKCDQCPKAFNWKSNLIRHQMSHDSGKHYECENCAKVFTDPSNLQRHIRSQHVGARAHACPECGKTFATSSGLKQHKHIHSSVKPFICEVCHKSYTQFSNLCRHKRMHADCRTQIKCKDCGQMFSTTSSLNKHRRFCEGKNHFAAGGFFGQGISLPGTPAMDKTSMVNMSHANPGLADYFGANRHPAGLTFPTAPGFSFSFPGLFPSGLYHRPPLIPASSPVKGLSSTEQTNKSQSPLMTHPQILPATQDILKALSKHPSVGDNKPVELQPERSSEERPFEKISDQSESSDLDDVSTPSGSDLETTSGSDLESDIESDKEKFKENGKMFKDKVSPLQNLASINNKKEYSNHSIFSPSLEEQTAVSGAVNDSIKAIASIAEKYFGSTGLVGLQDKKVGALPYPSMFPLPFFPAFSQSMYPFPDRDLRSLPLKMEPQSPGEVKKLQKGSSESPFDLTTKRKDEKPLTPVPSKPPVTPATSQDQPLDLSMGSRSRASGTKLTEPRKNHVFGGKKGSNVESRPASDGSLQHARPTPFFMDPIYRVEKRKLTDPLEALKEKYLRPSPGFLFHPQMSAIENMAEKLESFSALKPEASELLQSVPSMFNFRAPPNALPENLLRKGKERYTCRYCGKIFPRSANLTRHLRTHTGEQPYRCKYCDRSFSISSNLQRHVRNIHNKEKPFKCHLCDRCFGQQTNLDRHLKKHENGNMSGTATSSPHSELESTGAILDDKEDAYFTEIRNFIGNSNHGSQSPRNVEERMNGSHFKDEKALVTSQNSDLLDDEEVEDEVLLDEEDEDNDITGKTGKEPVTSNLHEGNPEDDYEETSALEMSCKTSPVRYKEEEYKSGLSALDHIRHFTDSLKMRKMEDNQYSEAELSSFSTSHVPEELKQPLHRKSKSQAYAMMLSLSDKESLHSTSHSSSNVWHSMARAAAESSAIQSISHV

Biological target: T1, DEAD-Box 56 (DDX56) (human (in the human HCC cell lines MHCC97H and Huh-7)) (UniProt Q9NY93)
T1 sequence: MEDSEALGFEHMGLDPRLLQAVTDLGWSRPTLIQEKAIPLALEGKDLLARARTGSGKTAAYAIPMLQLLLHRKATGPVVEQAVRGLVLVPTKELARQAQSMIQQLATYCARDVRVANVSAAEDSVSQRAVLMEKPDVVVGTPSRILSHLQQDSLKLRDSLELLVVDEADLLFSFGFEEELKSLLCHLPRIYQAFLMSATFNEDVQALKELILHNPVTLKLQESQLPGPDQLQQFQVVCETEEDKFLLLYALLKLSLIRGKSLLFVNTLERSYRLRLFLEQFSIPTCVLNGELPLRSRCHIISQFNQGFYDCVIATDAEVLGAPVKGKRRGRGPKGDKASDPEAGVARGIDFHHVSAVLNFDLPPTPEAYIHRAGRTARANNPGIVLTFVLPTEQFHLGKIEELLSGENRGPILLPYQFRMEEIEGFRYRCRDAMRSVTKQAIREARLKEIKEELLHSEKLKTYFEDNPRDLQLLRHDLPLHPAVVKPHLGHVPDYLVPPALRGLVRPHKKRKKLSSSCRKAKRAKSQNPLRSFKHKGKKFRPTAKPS
Assay: co-IP; reciprocal co-immunoprecipitation in MHCC97H and Huh-7 cells; no method described

In the case of “MDS1 and EVI1 complex locus (MECOM) (from UniProt Q03112 1-1230)”, the binding is reported as “binds”.
